Experimental data taken from paper PMC4742980.

The chains behind the UniProt entries cited, without tags or fusion partners.
UniProt P11387: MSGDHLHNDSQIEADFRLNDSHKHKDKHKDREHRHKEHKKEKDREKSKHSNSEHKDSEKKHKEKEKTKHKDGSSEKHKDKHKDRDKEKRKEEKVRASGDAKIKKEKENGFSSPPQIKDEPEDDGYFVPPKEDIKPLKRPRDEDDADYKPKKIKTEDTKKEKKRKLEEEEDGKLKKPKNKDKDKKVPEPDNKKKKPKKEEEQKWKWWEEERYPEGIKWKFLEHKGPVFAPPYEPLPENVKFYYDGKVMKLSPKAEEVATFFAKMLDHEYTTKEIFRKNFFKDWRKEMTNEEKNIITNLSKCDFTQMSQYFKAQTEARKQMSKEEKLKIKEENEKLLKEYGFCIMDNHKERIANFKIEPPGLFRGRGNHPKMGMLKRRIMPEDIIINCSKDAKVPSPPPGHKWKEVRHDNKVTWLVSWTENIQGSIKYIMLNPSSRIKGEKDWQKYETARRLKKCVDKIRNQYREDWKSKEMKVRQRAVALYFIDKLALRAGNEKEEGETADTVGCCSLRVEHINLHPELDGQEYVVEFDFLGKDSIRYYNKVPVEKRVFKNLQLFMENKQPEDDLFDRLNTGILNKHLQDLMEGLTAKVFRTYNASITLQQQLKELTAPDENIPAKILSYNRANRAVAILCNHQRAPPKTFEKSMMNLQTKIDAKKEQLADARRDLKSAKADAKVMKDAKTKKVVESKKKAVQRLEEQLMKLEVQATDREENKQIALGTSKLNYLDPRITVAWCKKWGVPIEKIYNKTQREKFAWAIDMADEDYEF
UniProt Q3TKT4: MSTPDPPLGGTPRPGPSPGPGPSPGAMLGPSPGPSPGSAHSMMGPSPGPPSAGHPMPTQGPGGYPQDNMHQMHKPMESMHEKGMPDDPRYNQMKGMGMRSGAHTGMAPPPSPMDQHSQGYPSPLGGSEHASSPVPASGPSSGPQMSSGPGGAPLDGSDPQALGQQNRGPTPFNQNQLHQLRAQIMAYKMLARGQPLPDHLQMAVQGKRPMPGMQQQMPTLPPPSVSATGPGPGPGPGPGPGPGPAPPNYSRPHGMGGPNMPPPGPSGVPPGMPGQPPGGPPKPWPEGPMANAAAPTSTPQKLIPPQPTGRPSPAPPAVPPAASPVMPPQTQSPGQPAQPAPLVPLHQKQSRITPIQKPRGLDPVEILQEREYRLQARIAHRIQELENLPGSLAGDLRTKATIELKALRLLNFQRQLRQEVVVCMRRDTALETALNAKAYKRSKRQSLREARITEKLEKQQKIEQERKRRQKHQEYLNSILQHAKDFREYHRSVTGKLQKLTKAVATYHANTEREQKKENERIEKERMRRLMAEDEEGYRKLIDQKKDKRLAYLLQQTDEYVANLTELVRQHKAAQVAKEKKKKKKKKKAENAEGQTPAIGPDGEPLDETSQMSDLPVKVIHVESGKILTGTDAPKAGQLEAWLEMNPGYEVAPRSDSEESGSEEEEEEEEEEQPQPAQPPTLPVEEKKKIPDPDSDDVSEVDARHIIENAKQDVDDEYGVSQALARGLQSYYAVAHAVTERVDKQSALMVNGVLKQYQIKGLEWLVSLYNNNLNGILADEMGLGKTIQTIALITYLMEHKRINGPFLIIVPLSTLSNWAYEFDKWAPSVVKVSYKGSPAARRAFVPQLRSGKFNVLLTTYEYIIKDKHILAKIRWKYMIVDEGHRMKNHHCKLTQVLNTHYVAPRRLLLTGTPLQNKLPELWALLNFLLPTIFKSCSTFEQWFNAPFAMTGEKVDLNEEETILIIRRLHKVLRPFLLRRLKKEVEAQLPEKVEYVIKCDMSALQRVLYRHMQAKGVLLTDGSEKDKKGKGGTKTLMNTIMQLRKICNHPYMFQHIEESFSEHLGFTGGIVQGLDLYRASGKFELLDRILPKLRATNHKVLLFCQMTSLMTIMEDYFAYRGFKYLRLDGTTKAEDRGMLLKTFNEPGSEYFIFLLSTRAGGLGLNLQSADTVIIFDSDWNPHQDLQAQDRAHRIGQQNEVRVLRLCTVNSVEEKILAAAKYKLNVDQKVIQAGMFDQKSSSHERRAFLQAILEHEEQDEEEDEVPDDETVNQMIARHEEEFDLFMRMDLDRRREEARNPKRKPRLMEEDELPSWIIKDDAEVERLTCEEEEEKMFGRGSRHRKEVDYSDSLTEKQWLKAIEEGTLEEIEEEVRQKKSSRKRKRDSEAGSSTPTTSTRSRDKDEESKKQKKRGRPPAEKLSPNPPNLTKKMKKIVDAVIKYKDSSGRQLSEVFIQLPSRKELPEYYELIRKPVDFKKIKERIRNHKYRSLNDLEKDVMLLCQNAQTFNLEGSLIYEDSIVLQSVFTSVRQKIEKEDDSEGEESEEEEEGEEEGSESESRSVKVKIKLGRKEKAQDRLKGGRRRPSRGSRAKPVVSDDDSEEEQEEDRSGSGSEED
UniProt A2BH40: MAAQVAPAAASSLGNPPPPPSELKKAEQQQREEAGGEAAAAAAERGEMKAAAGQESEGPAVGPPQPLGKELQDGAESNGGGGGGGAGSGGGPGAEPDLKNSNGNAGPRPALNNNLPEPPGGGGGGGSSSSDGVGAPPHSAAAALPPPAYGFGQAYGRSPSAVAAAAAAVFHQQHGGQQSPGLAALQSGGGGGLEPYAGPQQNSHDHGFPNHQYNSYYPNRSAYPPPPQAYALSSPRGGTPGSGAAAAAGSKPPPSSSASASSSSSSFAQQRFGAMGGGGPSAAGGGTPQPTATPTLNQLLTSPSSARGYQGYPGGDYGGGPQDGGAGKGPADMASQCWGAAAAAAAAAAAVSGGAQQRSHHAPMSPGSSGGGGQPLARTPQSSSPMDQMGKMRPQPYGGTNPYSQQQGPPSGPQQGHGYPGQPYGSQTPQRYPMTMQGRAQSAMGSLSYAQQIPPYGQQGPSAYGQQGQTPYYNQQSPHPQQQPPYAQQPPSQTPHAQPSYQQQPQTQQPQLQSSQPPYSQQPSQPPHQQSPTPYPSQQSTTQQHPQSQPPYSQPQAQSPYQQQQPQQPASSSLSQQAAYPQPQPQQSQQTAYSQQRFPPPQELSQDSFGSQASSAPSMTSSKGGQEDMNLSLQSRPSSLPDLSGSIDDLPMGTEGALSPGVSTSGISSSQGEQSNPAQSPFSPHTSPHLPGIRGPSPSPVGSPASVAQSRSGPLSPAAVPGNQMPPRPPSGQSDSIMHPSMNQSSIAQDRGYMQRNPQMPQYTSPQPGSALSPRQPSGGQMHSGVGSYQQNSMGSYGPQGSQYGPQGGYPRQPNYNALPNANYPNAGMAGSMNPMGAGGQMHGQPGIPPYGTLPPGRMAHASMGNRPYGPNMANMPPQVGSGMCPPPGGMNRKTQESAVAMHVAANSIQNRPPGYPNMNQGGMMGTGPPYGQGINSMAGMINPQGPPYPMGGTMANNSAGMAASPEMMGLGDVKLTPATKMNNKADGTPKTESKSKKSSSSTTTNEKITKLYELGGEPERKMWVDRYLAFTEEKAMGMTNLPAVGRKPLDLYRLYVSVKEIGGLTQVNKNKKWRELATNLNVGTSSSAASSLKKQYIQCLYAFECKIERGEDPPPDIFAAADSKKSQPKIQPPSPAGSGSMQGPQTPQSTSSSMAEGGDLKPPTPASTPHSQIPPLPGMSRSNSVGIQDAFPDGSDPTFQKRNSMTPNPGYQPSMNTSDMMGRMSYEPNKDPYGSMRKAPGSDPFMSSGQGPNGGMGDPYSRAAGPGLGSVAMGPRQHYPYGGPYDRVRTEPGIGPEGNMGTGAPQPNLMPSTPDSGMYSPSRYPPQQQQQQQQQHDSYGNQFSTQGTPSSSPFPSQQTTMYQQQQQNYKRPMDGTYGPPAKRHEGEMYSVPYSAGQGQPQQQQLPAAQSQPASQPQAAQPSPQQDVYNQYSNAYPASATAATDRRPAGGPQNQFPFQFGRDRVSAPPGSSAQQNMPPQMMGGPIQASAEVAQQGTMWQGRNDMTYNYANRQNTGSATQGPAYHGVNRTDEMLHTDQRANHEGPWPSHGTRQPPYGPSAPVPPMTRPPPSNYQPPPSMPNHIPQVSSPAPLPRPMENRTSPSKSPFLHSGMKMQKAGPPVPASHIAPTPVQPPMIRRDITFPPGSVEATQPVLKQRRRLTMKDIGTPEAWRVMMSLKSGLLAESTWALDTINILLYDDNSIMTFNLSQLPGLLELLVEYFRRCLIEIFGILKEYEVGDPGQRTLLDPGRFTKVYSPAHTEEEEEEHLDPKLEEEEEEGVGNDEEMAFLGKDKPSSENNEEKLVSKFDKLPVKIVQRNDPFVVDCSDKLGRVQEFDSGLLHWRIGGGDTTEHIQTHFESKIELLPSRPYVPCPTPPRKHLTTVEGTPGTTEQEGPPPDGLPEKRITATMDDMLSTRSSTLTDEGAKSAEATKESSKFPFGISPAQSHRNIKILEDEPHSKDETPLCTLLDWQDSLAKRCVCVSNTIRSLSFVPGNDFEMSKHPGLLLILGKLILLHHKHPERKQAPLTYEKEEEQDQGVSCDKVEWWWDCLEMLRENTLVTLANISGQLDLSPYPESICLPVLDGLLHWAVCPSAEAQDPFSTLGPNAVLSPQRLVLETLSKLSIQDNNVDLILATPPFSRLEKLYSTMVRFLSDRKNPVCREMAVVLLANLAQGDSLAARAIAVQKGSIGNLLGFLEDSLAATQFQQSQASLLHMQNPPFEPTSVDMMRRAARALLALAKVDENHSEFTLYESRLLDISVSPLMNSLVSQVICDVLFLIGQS
UniProt Q6PDM2: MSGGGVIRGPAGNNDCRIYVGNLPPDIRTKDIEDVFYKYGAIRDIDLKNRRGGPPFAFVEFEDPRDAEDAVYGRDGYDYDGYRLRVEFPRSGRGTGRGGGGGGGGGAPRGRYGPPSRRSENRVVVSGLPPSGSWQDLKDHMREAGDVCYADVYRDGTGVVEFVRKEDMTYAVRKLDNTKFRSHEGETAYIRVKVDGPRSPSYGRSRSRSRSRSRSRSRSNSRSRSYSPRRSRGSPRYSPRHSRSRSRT
UniProt P70372: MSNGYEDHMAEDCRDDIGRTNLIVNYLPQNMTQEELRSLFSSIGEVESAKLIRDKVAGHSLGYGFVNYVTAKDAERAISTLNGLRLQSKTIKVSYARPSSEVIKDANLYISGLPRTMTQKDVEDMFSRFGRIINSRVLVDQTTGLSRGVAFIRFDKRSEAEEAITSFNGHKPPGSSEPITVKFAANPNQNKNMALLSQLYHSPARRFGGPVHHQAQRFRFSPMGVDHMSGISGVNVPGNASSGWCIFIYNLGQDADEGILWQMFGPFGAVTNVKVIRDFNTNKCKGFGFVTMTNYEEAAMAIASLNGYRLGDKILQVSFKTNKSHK
UniProt P09405: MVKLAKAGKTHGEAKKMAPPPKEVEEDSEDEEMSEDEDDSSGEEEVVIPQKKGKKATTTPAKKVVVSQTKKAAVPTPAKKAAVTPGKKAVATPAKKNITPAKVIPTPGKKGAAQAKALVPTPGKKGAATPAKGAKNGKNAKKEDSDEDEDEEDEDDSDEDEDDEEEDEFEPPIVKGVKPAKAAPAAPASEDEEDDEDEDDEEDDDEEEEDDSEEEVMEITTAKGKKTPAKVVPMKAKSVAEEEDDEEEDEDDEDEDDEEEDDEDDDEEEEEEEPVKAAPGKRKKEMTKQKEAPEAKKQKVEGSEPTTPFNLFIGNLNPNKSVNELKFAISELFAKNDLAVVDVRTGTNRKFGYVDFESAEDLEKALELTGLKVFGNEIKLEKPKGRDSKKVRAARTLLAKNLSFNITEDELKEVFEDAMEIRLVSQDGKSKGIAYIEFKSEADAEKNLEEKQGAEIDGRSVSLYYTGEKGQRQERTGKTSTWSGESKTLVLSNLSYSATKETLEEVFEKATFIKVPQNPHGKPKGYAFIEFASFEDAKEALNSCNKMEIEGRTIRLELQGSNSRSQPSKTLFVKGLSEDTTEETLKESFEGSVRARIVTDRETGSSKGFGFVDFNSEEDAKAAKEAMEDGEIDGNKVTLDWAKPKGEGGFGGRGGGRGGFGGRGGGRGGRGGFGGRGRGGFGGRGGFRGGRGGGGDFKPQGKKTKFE
UniProt Q8BJ37: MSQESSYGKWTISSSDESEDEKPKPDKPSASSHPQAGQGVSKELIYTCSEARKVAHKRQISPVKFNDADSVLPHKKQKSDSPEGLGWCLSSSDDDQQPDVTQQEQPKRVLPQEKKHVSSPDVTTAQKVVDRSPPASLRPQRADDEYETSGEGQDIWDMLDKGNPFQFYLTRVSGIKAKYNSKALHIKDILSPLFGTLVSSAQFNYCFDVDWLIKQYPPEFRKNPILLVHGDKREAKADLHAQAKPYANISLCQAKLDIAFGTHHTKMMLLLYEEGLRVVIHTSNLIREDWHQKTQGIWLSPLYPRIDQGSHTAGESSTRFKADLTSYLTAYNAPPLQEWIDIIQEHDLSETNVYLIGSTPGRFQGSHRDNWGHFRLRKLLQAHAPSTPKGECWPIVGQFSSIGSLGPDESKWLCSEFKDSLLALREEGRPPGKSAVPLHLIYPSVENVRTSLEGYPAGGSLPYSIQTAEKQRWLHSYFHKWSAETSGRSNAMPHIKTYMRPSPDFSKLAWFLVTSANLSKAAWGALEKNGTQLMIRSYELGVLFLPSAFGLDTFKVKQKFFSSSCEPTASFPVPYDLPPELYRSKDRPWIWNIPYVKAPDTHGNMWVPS

B1: LIGIII (endogenous, mouse) (enzyme, UniProt P97386 1-1015)
chain: MTLAFKILFPRNLCALGRKELCLFPEQNRWAAISQFSQWSETNLLGGCCLLQRRKPVLALQRGHLRPRATHLTFWPGSHVGLCTGPCAMAEQRFCVDYAKRGTAGCKKCKEKIVKGVCRIGKVVPNPFSESGGDMKEWYHIKCMFEKLERARATTKKIEDLTELEGWEELEDNEKEQISQHIADLSSKAAATPKKKAAVQAKLTTTGQVTSPVKGASFITSTNPRKFSGFSAAKPNNSEQAPSSPAPGTSLSASKCDPKHKDCLLREFRKLCAMVAENPSYNTKTQIIHDFLQKGSTGGFSDGFHGDVYLTVKLLLPGVIKSVYNLNDKQIVKLFSRIFNCNPDDMARDLEQGDVSETIRIFFEQSKSFPPAAKSLLTIQEVDAFLLHLSKLTKEDEQQQALQDIASRCTANDLKCIIRLIKHDLKMNSGAKHVLDALDPNAYEAFKASRNLQDVVERVLHNEQEVEKDPGRRRALRVQASLMTPVQPMLAEACKSIEYAMKKCPNGMFSEIKYDGERVQVHKKGDHFSYFSRSLKPVLPHKVAHFKDYIPKAFPGGQSMILDSEVLLIDNNTGKPLPFGTLGVHKKAAFQDANVCLFVFDCIYFNDVSLMDRPLCERRKFLHDNMVEIRNRIMFSEMKQVTKASDLADMINRVIREGLEGLVLKDVKGTYEPGKRHWLKVKKDYLNEGAMADTADLVVLGAFYGQGSKGGMMSIFLMGCYDPDSQKWCTVTKCAGGHDDATLARLQKELVMVKISKDPSKIPSWLKINKIYYPDFIVPDPKKAAVWEITGAEFSRSEAHTADGISIRFPRCTRIRDDKDWKSATNLPQLKELYQLSKDKADFAVVAGDEASPTTGGSSGENEGTAGSAGPCKGPPSKSSASAKTTEQKLNSPSSRGGIKPIPKHSPMKPGEKLAVKSSPVKVGMKRKATDETPCLKKVLLDVFTGVRLYLPPSTPDFKRLKRYFVAFDGDLVQEFDMGSATHVLGNREKNTDAQLVSSEWIWACIRKRRLIAPC
B2: BTBD1 (endogenous, mouse) (protein, UniProt P58544 1-488)
chain: MASLGSAAAGEPATGAEAEPGPPAPPPPPPPPPAPSPSALGPLLPLQREPLYNWQATKASLKERFAFLFNSELLSDVRFVLGKGRGAAAAGGPQRIPAHRFVLAAGSAVFDAMFNGGMATTSAEIELPDVEPAAFLALLRFLYSDEVQIGPETVMTTLYTAKKYAVPALEAHCVEFLTKHLRADNAFMLLTQARLFDEPQLASLCLDTIDKSTVDAISAEGFTDIDIDTLCAVLERDTLSIRESRLFGAIVRWAEAECQRQQLAVTFGNKQKVLGKALSLIRFPLMTIEEFAAGPAQSGILSDREVVNLFLHFTVNPKPRVEYIDRPRCCLRGKECCINRFQQVESRWGYSGTSDRIRFTVNRRISVVGFGLYGSIHGPTDYQVNIQIIEYEKKQTLGQNDTGFSCDGTANTFRVMFKEPIEILPNVCYTACATLKGPDSHYGTKGLKKVVHETPAASKTVFLFFSSPGNNNGTSIEDGQIPEIIFYT
B3: NONO (endogenous, mouse) (protein, UniProt Q99K48 1-473)
chain: MQSNKAFNLEKQNHTPRKHHQHHHQQHHQQQQQQQQQQPPPPIPANGQQASSQNEGLTIDLKNFRKPGEKTFTQRSRLFVGNLPPDITEEEMRKLFEKYGKAGEVFIHKDKGFGFIRLETRTLAEIAKVELDNMPLRGKQLRVRFACHSASLTVRNLPQYVSNELLEEAFSVFGQVERAVVIVDDRGRPSGKGIVEFSGKPAARKALDRCSEGSFLLTTFPRPVTVEPMDQLDDEEGLPEKLVIKNQQFHKEREQPPRFAQPGSFEYEYAMRWKALIEMEKQQQDQVDRNIKEAREKLEMEMEAARHEHQVMLMRQDLMRRQEELRRMEELHNQEVQKRKQLELRQEEERRRREEEMRRQQEEMMRRQQEGFKGTFPDAREQEIRMGQMAMGGAMGINNRGAMPPAPVPPGTPAPPGPATMMPDGTLGLTPPTTERFGQAATMEGIGAIGGTPPAFNRPAPGAEFAPNKRRRY
B4: FBL (endogenous, mouse) (protein, UniProt P35550 1-327)
chain: MKPGFSPRGGGFGGRGGFGDRGGRGGGRGGRGGFGGGRGGFGGGGRGRGGGGGGFRGRGGGGGRGGGFQSGGNRGRGGGRGGKRGNQSGKNVMVEPHRHEGVFICRGKEDALVTKNLVPGESVYGEKRVSISEGDDKIEYRAWNPFRSKLAAAILGGVDQIHIKPGAKVLYLGAASGTTVSHVSDIVGPDGLVYAVEFSHRSGRDLINLAKKRTNIIPVIEDARHPHKYRMLIAMVDVIFADVAQPDQTRIVALNAHTFLRNGGHFVISIKANCIDSTASAEAVFASEVKKMQQENMKPQEQLTLEPYERDHAVVVGVYRPPPKVKN
B5: SFPQ (endogenous, mouse) (protein, UniProt Q8VIJ6 1-699)
chain: MSRDRFRSRGGGGGGFHRRGGGGGRGGLHDFRSPPPGMGLNQNRGPMGPGPGGPKPPLPPPPPHQQQQQPPPQQPPPQQPPPHQQPPPHQPPHQQPPPPPQESKPVVPQGPGSAPGVSSAPPPAVSAPPANPPTTGAPPGPGPTPTPPPAVPSTAPGPPPPSTPSSGVSTTPPQTGGPPPPPAGGAGPGPKPGPGPGGPKGGKMPGGPKPGGGPGMGAPGGHPKPPHRGGGEPRGGRQHHAPYHQQHHQGPPPGGPGPRTEEKISDSEGFKANLSLLRRPGEKTYTQRCRLFVGNLPADITEDEFKRLFAKYGEPGEVFINKGKGFGFIKLESRALAEIAKAELDDTPMRGRQLRVRFATHAAALSVRNLSPYVSNELLEEAFSQFGPIERAVVIVDDRGRSTGKGIVEFASKPAARKAFERCSEGVFLLTTTPRPVIVEPLEQLDDEDGLPEKLAQKNPMYQKERETPPRFAQHGTFEYEYSQRWKSLDEMEKQQREQVEKNMKDAKDKLESEMEDAYHEHQANLLRQDLMRRQEELRRMEELHSQEMQKRKEMQLRQEEERRRREEEMMIRQREMEEQMRRQREESYSRMGYMDPRERDMRMGGGGTMNMGDPYGSGGQKFPPLGGGGGIGYEANPGVPPATMSGSMMGSDMRTERFGQGGAGPVGGQGPRGMGPGTPAGYGRGREEYEGPNKKPRF
B6: TCOF1 (endogenous, mouse) (protein, UniProt O08784 1-1320)
chain: MAEARKRRELLPLIYHHLLQAGYVRAAREVKEQSGQKSFLTQPVTLLDIYTHWQQTSELGQKQKAEDDETLQAKKSRVSDPVSSSESSDQEKEEEAATERAKATPRPTPVNSATAALPSKVKEKGKTKTANKTVNSVSHPGSGKTVVHLLSGKSPKKSAEPLANTVLASETEEEGNAQALGPTAKSGTVSAGQGSSSSEDSSISSDETDVEVKSPAKPAQAKASAAPAKDPPARTAPGPTKLGNVAPTPAKPARAAAAAAAAAVAAAAAAAAEESESSEEDSDSEDEAPAGLPSQVKASGKGPHVRADSVSAKGISGKGPILATPGKTGPAATQAKAERPEKDSETSSEDDSDSEDEMPVTVNTPQARTSGKSPRARGTSAPAKESSQKGAPAVTPGKARPVAAQAGKPEAKSSEESESDSGETPAAATLTTSPAKVKPLGKSSQVRPVSTVTPGSSGKGANLPCPGKVGSAALRVQMVKKEDVSESSSAELDSDGPGSPAKAKASLALPQKVRPVATQVKTDRGKGHSGSSEESSDSEEEAAPAASAAQAKPALEKQMKASSRKGTPASATGASTSSHCKAGAVTSSASLSSPALAKGTQRSDVDSSSESESEGAAPSTPRVQGKSGGKGLQGKAALGQGVAPVHTQKTGPSVKAMAQEDSESLEEDSSSEEEDETPAQATPLGRLPQAKANPPPTKTPPASASGKAVAAPTKGKPPVPNSTVSARGQRSVPAAGKAGAPATQAQKGPVAGTGEDSESSSKEESDSEEETPAQIKPVGKTSQVRAASAPAKESPKKGAHPGTPGKTGSSATQAQPGKTEDSDSSSEESDSDTEMPSAQAIKSPPVSVNRNSSPAVPAPTPEGVQAVNTTKKASGTTAQSSSSESEDGDEDLIPATQPSTYALRTSVTTPAALSRAASQPSKSEQSSRMPKGKKAKAAASAQTSSAVETLPMMPPQSAPIQPKATNKLGKSKLPEKQQLAPGYPKAPRSSEDSSDTSSEDEEDAKRPQMPKSAHRLDPDPSQKETVVEETPTESSEDEMVAPSQSLLSGYMTPGLTVANSQASKATPRPDSNSLASSAPATKDNPDGKQKSKSQHAADTALPKTGRKEASSGSTPQKPKKLKKSTSSSPAPTQTLPNSITQRLLEQAWPLSEAQVQASVVKVLTELLEQERLKATEAIKESGKKSQKRKLSGDLEAGAPKNKKKKEQPVPRASAVSPEKAPMTSKAKSKLDKGSAGGKGKGSPGPQGAKEKPDGELLGIKLESGEQSDPKSKSKKKKSLKKKKDKEKKEKKKGKKSLAKDSASPIQKKKKKKKKSAEPAV

The molecules below were run against GFP-tagged human TOP1 (GFP-TOP1) (human) (UniProt P11387) (assay: affinity purification with mass spectrometry; native-IP without cross-linking: nuclear extracts in HGN165 buffer (20 mM HEPES pH 7.4, 10% glycerol, 165 mM NaCl) with Benzonase; GFP-Trap_A; SDS-PAGE slices, LC-MS/MS; control: cells expressing GFP).

Row | binding | Molecule
1 | binds | PARP1 (endogenous, mouse) (from UniProt P11103 1-1013)
2 | binds | XRCC1 (endogenous, mouse) (from UniProt Q60596 1-631)
3 | binds | CHD4 (endogenous, mouse) (from UniProt Q6PDQ2 1-1915)
4 | binds | SMARCA4 (endogenous, mouse) (from UniProt Q3TKT4 1-1613)

These molecules were tested against GFP-tagged human TOP1 (GFP-TOP1) (human) (UniProt P11387) (assay: affinity purification with mass spectrometry; DSP-IP: AID-activated P388/CPT45-GFP-TOP1 cells cross-linked with 0.6 mM DSP for 30 min; nuclear extract with Benzonase; GFP-Trap_A; washes up to 500 mM NaCl; 18O/16O labelling, LC-MS/MS; control: cells expressing GFP).

Row | binding | Molecule
5 | binds | PARP1 (endogenous, mouse) (from UniProt P11103 1-1013)
6 | binds | XRCC1 (endogenous, mouse) (from UniProt Q60596 1-631)
7 | binds | CHD4 (endogenous, mouse) (from UniProt Q6PDQ2 1-1915)
8 | binds | ARID1A (endogenous, mouse) (from UniProt A2BH40 1-2283)
9 | binds | SMARCA4 (endogenous, mouse) (from UniProt Q3TKT4 1-1613)
10 | binds | SMARCC1 (endogenous, mouse) (from UniProt P97496 1-1104)

Each molecule was assayed against GFP-tagged human TOP1 (GFP-TOP1) (human) (UniProt P11387) (assay: affinity purification with mass spectrometry; GFP-TOP1 IP with GFP-Trap_A from P388/CPT45 nuclear extract; the text does not tell whether by DSP-IP, native-IP or both (Supplementary Tables 1 and 2)).

Row | binding | Molecule
11 | binds | SRSF1 (endogenous, mouse) (from UniProt Q6PDM2 1-248)
12 | binds | PNKP (polynucleotide kinase phosphatase), endogenous, mouse (from UniProt Q9JLV6 1-522) (enzyme)
13 | binds | ELAVL1 (endogenous, mouse) (from UniProt P70372 1-326)
14 | binds | NCL (endogenous, mouse) (from UniProt P09405 1-707)
15 | binds | TDP1 (tyrosyl-DNA phosphodiesterase 1), endogenous, mouse (from UniProt Q8BJ37 1-609) (enzyme)
16 | binds | B1
17 | binds | B2
18 | binds | B3
19 | binds | B4
20 | binds | B5
21 | binds | B6

Results are given in words; binding and its absence hold for the method and conditions named. In cells and extracts the contact can be indirect. Here binding means that the protein was enriched with, or labelled near, the bait; the list need not be complete.
